Results are given in words; binding and its absence hold for the method and conditions named. Binding seen in cells or lysates may run through a third protein. These calls come from enrichment with a bait or labelling near it, and not all partners need be listed. For some of these results: A no says only that the protein was not detected with the bait.
T1: VRN5-SYFP2 wild type (Arabidopsis thaliana) (UniProt Q9LHF5)
T1 sequence: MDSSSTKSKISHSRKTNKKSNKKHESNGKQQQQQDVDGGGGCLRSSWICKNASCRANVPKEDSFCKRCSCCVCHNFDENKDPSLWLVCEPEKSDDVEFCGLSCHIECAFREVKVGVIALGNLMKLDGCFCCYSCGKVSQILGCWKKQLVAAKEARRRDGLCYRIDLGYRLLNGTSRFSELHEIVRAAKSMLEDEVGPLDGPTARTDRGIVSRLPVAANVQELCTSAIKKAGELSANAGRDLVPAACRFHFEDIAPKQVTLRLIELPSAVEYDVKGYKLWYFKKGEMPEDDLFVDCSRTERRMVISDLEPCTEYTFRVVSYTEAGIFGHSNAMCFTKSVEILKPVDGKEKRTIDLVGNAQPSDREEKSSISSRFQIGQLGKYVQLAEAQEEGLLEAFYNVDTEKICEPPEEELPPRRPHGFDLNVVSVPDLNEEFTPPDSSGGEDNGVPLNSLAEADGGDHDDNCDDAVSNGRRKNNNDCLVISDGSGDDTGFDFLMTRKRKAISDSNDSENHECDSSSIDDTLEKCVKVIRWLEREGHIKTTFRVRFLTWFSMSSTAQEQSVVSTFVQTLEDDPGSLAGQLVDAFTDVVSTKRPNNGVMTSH

Sequences of proteins named here, by UniProt entry; tags and fusion partners are left off. A change or cut given only in a name is not applied to a line headed by its entry.
UniProt Q9FIE3: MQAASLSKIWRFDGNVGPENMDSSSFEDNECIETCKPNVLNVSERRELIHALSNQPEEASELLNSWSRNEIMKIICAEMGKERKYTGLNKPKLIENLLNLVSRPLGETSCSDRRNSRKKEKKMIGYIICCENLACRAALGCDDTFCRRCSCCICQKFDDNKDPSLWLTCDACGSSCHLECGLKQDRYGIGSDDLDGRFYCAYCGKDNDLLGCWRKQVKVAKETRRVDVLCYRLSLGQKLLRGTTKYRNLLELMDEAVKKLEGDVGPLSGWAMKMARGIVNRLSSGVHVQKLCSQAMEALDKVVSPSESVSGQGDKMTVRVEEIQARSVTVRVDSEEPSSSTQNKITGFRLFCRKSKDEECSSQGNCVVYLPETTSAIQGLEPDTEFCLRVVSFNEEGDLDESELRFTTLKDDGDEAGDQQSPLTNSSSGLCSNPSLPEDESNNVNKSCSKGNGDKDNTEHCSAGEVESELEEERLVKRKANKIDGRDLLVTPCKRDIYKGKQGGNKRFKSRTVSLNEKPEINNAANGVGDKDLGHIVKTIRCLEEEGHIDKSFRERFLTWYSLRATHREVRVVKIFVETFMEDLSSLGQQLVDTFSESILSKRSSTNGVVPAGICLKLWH
UniProt O22467: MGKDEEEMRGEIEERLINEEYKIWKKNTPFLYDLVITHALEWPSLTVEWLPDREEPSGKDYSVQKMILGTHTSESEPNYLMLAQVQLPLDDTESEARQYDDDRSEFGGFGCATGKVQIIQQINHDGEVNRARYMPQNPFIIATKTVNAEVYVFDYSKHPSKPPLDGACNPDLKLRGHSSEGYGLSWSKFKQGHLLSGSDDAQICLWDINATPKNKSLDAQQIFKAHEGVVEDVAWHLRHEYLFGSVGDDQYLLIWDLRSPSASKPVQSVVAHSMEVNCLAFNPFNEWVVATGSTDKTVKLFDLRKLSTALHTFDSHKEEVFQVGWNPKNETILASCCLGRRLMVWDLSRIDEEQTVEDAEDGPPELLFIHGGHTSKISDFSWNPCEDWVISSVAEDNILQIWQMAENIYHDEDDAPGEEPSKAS


How the values were obtained:
Assay in all cases: affinity purification with mass spectrometry; native GFP-Trap co-IP from total protein extracts of seedlings vernalized for 6 weeks; IP buffer 50 mM Tris-HCl pH 7.5, 150 mM NaCl, 0.5% NP-40, 1% Triton-X, with PhosSTOP; enrichment against non-transgenic Col-FRI; n = 3
[1] = target: T1, VRN5-SYFP2 wild type (Arabidopsis thaliana)
[2] = target: VIN3-GFP ΔVEL (Arabidopsis thaliana) (UniProt Q9FIE3)
[3] = target: VRN5-SYFP2 ΔVEL (Arabidopsis thaliana) (UniProt Q9LHF5)
[4] = target: VIN3-GFP wild type (Arabidopsis thaliana) (UniProt Q9FIE3)

Molecule | binding [1] | binding [2] | binding [3] | binding [4]
MSI1 (from UniProt O22467 1-424) | binds | no binding | binds | 
SWN (protein, UniProt Q9ZSM8 1-856) MVTDDSNSSGRIKSHVDDDDDGEEEEDRLEGLENRLSELKRKIQGERVRSIKEKFEANRKKVDAHVSPFSSAASSRATAEDNGNSNMLSSRMRMPLCKLNGFSHGVGDRDYVPTKDVISASVKLPIAERIPPYTTWIFLDRNQRMAEDQSVVGRRQIYYEQHGGETLICSDSEEEPEPEEEKREFSEGEDSIIWLIGQEYGMGEEVQDALCQLLSVDASDILERYNELKLKDKQNTEEFSNSGFKLGISLEKGLGAALDSFDNLFCRRCLVFDCRLHGCSQPLISASEKQPYWSDYEGDRKPCSKHCYLQLKAVREVPETCSNFASKAEEKASEEECSKAVSSDVPHAAASGVSLQVEKTDIGIKNVDSSSGVEQEHGIRGKREVPILKDSNDLPNLSNKKQKTAASDTKMSFVNSVPSLDQALDSTKGDQGGTTDNKVNRDSEADAKEVGEPIPDNSVHDGGSSICQPHHGSGNGAIIIAEMSETSRPSTEWNPIEKDLYLKGVEIFGRNSCLIARNLLSGLKTCLDVSNYMRENEVSVFRRSSTPNLLLDDGRTDPGNDNDEVPPRTRLFRRKGKTRKLKYSTKSAGHPSVWKRIAGGKNQSCKQYTPCGCLSMCGKDCPCLTNETCCEKYCGCSKSCKNRFRGCHCAKSQCRSRQCPCFAAGRECDPDVCRNCWVSCGDGSLGEAPRRGEGQCGNMRLLLRQQQRILLGKSDVAGWGAFLKNSVSKNEYLGEYTGELISHHEADKRGKIYDRANSSFLFDLNDQYVLDAQRKGDKLKFANHSAKPNCYAKVMFVAGDHRVGIFANERIEASEELFYDYRYGPDQAPVWARKPEGSKKDDSAITHRRARKHQSH | binds | no binding | binds | 
FIE (protein, UniProt Q9LT47 1-369) MSKITLGNESIVGSLTPSNKKSYKVTNRIQEGKKPLYAVVFNFLDARFFDVFVTAGGNRITLYNCLGDGAISALQSYADEDKEESFYTVSWACGVNGNPYVAAGGVKGIIRVIDVNSETIHKSLVGHGDSVNEIRTQPLKPQLVITASKDESVRLWNVETGICILIFAGAGGHRYEVLSVDFHPSDIYRFASCGMDTTIKIWSMKEFWTYVEKSFTWTDDPSKFPTKFVQFPVFTASIHTNYVDCNRWFGDFILSKSVDNEILLWEPQLKENSPGEGASDVLLRYPVPMCDIWFIKFSCDLHLSSVAIGNQEGKVYVWDLKSCPPVLITKLSHNQSKSVIRQTAMSVDGSTILACCEDGTIWRWDVITK | binds | no binding | binds | 
VEL1 (protein, UniProt Q9SUM4 1-714) MDSSLDGAAGDSSKCSEMSVDEKRQLVYELSKQSHLAAEVLQAWSRQEILQILCAEMGKERKYTGLTKVKIIETLLKIVSEKNSGECEGKKRDSDCLPIQRNTKRQRKVDNPSRYVIPATNIVTSNNASGSCSSVNTKGESTTIYCKNLACRAVLRQEDSFCRRCSCCICRKYDDNKDPSLWLTCSSDPPFEGESCGFSCHLECAFNTEKSGLGKDKQSEGCCFYCVSCGKANSLLECWKKQLTIAKETRRVEVLCYRLFLVQKLLKSSTKYRNLCEVVDEAVKTLEADVGPLTGLPMKMGRGIVNRLHSGPDVQKLCSSALESLETIATTPPDVAALPSPRSSKMQQDCSYVLSNEISADTATTGSTKIRFEDVNATSLTVVLASNEIPSPPNIVHYSIWHRKVPEKDYPEKSTCTLFIPNTRFVVSGLAPASEYCFKVVSYSGTREMGVDEINVLTRSAEEGANCSSAVERSVSPLTNCSTLSSNPSSVEAESNNDYIVPKKPSSKNEDNNSPSVDESAAKRMKRTTDSDIVQIEKDVEQIVLLDDEEQEAVLDKTESETPVVVTTKSLVGNRNSSDASLPITPFRSDEIKNRQARIEISMKDNCNNGDHSANGGTESGLEHCVKIIRQLECSGHIDKNFRQKFLTWYSLRATSQEIRVVKIFIDTFIDDPMALAEQLIDTFDDRVSIKRSAVGGSGASAVVPSGFCMKLWH | binds | no binding | binds | binds
CURLY LEAF (CLF) (protein, UniProt P93831 1-902) MASEASPSSSATRSEPPKDSPAEERGPASKEVSEVIESLKKKLAADRCISIKKRIDENKKNLFAITQSFMRSSMERGGSCKDGSDLLVKRQRDSPGMKSGIDESNNNRYVEDGPASSGMVQGSSVPVKISLRPIKMPDIKRLSPYTTWVFLDRNQRMTEDQSVVGRRRIYYDQTGGEALICSDSEEEAIDDEEEKRDFLEPEDYIIRMTLEQLGLSDSVLAELASFLSRSTSEIKARHGVLMKEKEVSESGDNQAESSLLNKDMEGALDSFDNLFCRRCLVFDCRLHGCSQDLIFPAEKPAPWCPPVDENLTCGANCYKTLLKSGRFPGYGTIEGKTGTSSDGAGTKTTPTKFSSKLNGRKPKTFPSESASSNEKCALETSDSENGLQQDTNSDKVSSSPKVKGSGRRVGRKRNKNRVAERVPRKTQKRQKKTEASDSDSIASGSCSPSDAKHKDNEDATSSSQKHVKSGNSGKSRKNGTPAEVSNNSVKDDVPVCQSNEVASELDAPGSDESLRKEEFMGETVSRGRLATNKLWRPLEKSLFDKGVEIFGMNSCLIARNLLSGFKSCWEVFQYMTCSENKASFFGGDGLNPDGSSKFDINGNMVNNQVRRRSRFLRRRGKVRRLKYTWKSAAYHSIRKRITEKKDQPCRQFNPCNCKIACGKECPCLLNGTCCEKYCGCPKSCKNRFRGCHCAKSQCRSRQCPCFAADRECDPDVCRNCWVIGGDGSLGVPSQRGDNYECRNMKLLLKQQQRVLLGISDVSGWGAFLKNSVSKHEYLGEYTGELISHKEADKRGKIYDRENCSFLFNLNDQFVLDAYRKGDKLKFANHSPEPNCYAKVIMVAGDHRVGIFAKERILAGEELFYDYRYEPDRAPAWAKKPEAPGSKKDENVTPSVGRPKKLA | binds | no binding | binds | 

Continued, values first:

binding [1] | binding [2] | binding [3] | binding [4] | Molecule
binds |  |  |  | VIN3 (endogenous) (from UniProt Q9FIE3 1-620)
binds | no binding | binds |  | VRN2 (protein, UniProt Q8W5B1 1-440) MCRQNCRAKSSPEEVISTDENLLIYCKPVRLYNIFHLRSLGNPSFLPRCLNYKIGAKRKRKSRSTGMVVFNYKDCNNTLQRTEVREDCSCPFCSMLCGSFKGLQFHLNSSHDLFEFEFKLLEEYQTVNVSVKLNSFIFEEEGSDDDKFEPFSLCSKPRKRRQRGGRNNTRRLKVCFLPLDSPSLANGTENGIALLNDGNRGLGYPEATELAGQFEMTSNIPPAIAHSSLDAGAKVILTTEAVVPATKTRKLSAERSEARSHLLLQKRQFYHSHRVQPMALEQVMSDRDSEDEVDDDVADFEDRQMLDDFVDVNKDEKQFMHLWNSFVRKQRVIADGHISWACEVFSRFYEKELHCYSSLFWCWRLFLIKLWNHGLVDSATINNCNTILENCRNTSVTNNNNNSVDHPSDSNTNNNNIVDHPNDIKNKNNVDNKDNNSRDK
 | no binding |  | binds | VRN5 (endogenous) (protein, UniProt Q9LHF5 1-602) MDSSSTKSKISHSRKTNKKSNKKHESNGKQQQQQDVDGGGGCLRSSWICKNASCRANVPKEDSFCKRCSCCVCHNFDENKDPSLWLVCEPEKSDDVEFCGLSCHIECAFREVKVGVIALGNLMKLDGCFCCYSCGKVSQILGCWKKQLVAAKEARRRDGLCYRIDLGYRLLNGTSRFSELHEIVRAAKSMLEDEVGPLDGPTARTDRGIVSRLPVAANVQELCTSAIKKAGELSANAGRDLVPAACRFHFEDIAPKQVTLRLIELPSAVEYDVKGYKLWYFKKGEMPEDDLFVDCSRTERRMVISDLEPCTEYTFRVVSYTEAGIFGHSNAMCFTKSVEILKPVDGKEKRTIDLVGNAQPSDREEKSSISSRFQIGQLGKYVQLAEAQEEGLLEAFYNVDTEKICEPPEEELPPRRPHGFDLNVVSVPDLNEEFTPPDSSGGEDNGVPLNSLAEADGGDHDDNCDDAVSNGRRKNNNDCLVISDGSGDDTGFDFLMTRKRKAISDSNDSENHECDSSSIDDTLEKCVKVIRWLEREGHIKTTFRVRFLTWFSMSSTAQEQSVVSTFVQTLEDDPGSLAGQLVDAFTDVVSTKRPNNGVMTSH
